These results are taken from patent publication US20150110766A1 (UNIVERSITY ULM, published 2015).

The chains behind the UniProt entries cited, without tags or fusion partners. Where a name states a change or a piece, a line headed by the entry shows the natural chain unless it says otherwise. Residues count along the entry.
UniProt P01024: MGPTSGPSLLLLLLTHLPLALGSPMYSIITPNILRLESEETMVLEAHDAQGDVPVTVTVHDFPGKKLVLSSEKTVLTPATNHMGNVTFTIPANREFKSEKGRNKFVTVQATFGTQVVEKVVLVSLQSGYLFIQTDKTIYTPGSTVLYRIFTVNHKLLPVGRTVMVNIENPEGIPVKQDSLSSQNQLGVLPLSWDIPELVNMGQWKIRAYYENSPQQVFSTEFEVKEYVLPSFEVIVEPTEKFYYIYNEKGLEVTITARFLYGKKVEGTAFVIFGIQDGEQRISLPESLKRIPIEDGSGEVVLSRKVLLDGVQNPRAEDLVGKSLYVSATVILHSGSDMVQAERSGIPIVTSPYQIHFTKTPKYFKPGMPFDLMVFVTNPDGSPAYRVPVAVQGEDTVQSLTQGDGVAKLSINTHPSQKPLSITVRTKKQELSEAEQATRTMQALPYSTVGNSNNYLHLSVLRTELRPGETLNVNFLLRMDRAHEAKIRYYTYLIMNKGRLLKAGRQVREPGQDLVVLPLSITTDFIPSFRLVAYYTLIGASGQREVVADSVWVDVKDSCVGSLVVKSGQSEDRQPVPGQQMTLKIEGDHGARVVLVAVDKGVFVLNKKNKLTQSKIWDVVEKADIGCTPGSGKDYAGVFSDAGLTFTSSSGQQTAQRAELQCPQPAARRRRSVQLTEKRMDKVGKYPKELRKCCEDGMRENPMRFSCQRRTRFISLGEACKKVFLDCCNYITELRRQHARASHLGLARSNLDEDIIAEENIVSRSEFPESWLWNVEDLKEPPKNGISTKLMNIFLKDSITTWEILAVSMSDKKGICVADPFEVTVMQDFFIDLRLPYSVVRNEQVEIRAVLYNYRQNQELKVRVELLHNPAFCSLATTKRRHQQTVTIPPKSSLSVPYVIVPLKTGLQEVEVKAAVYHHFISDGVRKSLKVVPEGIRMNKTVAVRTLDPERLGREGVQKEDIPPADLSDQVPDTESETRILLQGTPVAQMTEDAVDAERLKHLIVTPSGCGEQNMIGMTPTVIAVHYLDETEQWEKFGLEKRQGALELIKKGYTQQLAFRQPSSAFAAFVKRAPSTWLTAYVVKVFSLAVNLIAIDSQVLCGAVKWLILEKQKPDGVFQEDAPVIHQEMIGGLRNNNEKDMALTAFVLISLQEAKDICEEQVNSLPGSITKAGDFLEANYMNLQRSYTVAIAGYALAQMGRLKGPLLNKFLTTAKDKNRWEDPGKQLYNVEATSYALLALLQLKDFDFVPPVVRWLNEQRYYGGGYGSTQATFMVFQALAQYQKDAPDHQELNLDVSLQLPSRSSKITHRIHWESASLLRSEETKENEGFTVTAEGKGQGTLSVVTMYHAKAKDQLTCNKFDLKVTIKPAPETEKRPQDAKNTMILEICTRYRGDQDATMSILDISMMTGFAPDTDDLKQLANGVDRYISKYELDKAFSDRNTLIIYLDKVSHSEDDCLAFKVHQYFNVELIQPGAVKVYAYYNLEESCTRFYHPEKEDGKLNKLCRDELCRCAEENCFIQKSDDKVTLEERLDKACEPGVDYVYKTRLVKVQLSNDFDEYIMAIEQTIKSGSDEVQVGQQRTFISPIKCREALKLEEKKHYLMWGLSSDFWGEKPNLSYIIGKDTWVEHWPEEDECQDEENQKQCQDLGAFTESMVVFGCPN
UniProt P08603, residues 19-264: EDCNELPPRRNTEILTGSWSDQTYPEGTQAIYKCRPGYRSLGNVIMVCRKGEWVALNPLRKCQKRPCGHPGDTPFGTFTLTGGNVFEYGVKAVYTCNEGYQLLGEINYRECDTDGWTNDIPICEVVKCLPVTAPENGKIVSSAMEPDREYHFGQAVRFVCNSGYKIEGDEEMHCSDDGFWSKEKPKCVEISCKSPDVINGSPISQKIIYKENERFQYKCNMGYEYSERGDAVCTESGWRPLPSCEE

Results are given in words; binding and its absence hold for the method and conditions named. Some binding calls cover weakened binding; strength is not graded here.

Assay [1] addresses T1, C3b (UniProt P01024 749-1663; P01024 23-667).
T1 construct: Immobilised on a CM5 chip; A small amount was amine-coupled and the majority deposited via the reactive thioester by on-chip AP convertase; also called complement fragment C3b; deposited C3b
Kind of assay: SPR, affinity determination on deposited C3b. (In general: Surface plasmon resonance follows binding to a sensor surface in real time, without labels.)

Assay [2] has as its target T1, C3b. Kind of assay: SPR, fitted affinity curves for C3b normalised to Rmax.

As for FH1-4 (from UniProt P08603 19-264), the binding result with C3b [1] and with C3b [2] was “binds” in each case.
